From publication PMC2365413 come the findings set out here.

By UniProt entry, the sequences of proteins in these tests, tags left out.
UniProt O89090, whole entry: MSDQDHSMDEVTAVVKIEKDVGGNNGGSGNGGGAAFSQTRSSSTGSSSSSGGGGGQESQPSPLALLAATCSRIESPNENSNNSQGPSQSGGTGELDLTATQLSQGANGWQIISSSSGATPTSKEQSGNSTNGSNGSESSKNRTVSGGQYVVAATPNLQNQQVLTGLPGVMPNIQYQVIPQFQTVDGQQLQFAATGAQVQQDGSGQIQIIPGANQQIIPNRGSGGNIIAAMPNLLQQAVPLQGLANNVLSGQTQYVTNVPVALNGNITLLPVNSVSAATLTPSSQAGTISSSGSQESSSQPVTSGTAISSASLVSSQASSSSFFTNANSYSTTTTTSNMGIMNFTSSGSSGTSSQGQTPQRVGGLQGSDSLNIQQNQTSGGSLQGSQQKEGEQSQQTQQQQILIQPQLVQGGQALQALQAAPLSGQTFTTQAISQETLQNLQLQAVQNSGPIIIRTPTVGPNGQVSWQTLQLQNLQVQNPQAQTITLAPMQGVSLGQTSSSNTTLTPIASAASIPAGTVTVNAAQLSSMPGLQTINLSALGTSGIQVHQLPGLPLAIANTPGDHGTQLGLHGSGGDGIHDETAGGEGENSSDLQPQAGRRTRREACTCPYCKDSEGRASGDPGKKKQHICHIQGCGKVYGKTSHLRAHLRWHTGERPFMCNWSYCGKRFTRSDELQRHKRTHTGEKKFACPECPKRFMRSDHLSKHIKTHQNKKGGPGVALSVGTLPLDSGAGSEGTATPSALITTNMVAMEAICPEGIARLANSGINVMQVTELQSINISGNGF

For this series, the target named is Sp1 (UniProt O89090). As to the kind of experiment: EMSA. The settings on record: 30A5 nuclear extract, bands 1 and 2 of four; EMSA: 10 ug nuclear protein, 10 mM HEPES pH 7.9, 50 mM KCl, 5 mM MgCl2, 5 mM DTT, 1 mM EDTA, 10% glycerol, 1 ug poly(dI.dC), 20 ul, on ice 30 min, 4% PAGE; protein in an extract; label: 32P 5' end label, both strands. Background: Mobility shift assays separate free from complexed probe on a gel.

For at least one entry, the source does not settle the construct or the ends of the probe. At least one result comes from cells or an extract, where the contact may be indirect.

In the case of “GGTGAGCCGTTGGGCTGGCCCAAACCGCCC (double strand) [ACC promoter II -389/-359 30-mer (TNF responsive element)]”, the binding result is given as “binds”.
